Experimental data from PMC11321995.
No constants are given. Whether binding was seen depends on the method and setting. Binding seen in cells or lysates may run through a third protein. A result given as binding can be weak or reduced; the word gives no strength.

Chains of the proteins cited; added tags and fusions are not shown. Lines headed by an entry give the natural chain unless they say otherwise; changes in a name come on top.
UniProt P32243: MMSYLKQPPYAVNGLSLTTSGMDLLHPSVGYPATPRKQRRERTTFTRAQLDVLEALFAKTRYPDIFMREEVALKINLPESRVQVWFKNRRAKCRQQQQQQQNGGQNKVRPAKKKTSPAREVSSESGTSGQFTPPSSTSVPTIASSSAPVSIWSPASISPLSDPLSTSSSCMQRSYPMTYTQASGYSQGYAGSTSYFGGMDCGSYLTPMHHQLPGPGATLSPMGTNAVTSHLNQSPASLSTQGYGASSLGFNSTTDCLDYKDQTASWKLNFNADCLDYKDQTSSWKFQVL

Biological target: 3XHA-tagged human OTX2 lacking its DNA-binding homeodomain (human) (UniProt P32243)
Test: co-IP; HDMB03 cells overexpressing 3XHA-tagged wild-type OTX2 or OTX2 lacking its homeodomain; precipitated with a haemagglutinin antibody; immunoblot for LASR proteins

B1: heterogeneous nuclear ribonucleoprotein M (HNRNPM) (protein, UniProt P52272 1-730)
chain: MAAGVEAAAEVAATEIKMEEESGAPGVPSGNGAPGPKGEGERPAQNEKRKEKNIKRGGNRFEPYANPTKRYRAFITNIPFDVKWQSLKDLVKEKVGEVTYVELLMDAEGKSRGCAVVEFKMEESMKKAAEVLNKHSLSGRPLKVKEDPDGEHARRAMQKVMATTGGMGMGPGGPGMITIPPSILNNPNIPNEIIHALQAGRLGSTVFVANLDYKVGWKKLKEVFSMAGVVVRADILEDKDGKSRGIGTVTFEQSIEAVQAISMFNGQLLFDRPMHVKMDERALPKGDFFPPERPQQLPHGLGGIGMGLGPGGQPIDANHLNKGIGMGNIGPAGMGMEGIGFGINKMGGMEGPFGGGMENMGRFGSGMNMGRINEILSNALKRGEIIAKQGGGGGGGSVPGIERMGPGIDRLGGAGMERMGAGLGHGMDRVGSEIERMGLVMDRMGSVERMGSGIERMGPLGLDHMASSIERMGQTMERIGSGVERMGAGMGFGLERMAAPIDRVGQTIERMGSGVERMGPAIERMGLSMERMVPAGMGAGLERMGPVMDRMATGLERMGANNLERMGLERMGANSLERMGLERMGANSLERMGPAMGPALGAGIERMGLAMGGGGGASFDRAIEMERGNFGGSFAGSFGGAGGHAPGVARKACQIFVRNLPFDFTWKMLKDKFNECGHVLYADIKMENGKSKGCGVVKFESPEVAERACRMMNGMKLSGREIDVRIDRNA
  binding: binds
